# Some of the results follow.
# Amino acid sequences for entries named in this document (tags omitted). A change or cut given only in a name is not applied to a line headed by its entry.
# UniProt Q15654: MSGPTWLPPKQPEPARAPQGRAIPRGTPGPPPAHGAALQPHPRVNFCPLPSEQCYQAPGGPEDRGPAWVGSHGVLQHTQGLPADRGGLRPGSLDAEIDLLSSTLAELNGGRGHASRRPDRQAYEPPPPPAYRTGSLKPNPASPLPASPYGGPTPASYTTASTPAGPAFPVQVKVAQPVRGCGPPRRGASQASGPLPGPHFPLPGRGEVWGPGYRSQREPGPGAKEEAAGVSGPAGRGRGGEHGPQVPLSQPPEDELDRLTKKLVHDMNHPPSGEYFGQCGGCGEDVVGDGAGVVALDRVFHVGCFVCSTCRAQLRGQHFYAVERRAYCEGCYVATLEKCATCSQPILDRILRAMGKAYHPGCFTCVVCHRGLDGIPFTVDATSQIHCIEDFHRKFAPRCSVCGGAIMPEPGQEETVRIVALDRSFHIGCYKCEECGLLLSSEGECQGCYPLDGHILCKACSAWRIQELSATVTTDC
# UniProt Q9H3H1: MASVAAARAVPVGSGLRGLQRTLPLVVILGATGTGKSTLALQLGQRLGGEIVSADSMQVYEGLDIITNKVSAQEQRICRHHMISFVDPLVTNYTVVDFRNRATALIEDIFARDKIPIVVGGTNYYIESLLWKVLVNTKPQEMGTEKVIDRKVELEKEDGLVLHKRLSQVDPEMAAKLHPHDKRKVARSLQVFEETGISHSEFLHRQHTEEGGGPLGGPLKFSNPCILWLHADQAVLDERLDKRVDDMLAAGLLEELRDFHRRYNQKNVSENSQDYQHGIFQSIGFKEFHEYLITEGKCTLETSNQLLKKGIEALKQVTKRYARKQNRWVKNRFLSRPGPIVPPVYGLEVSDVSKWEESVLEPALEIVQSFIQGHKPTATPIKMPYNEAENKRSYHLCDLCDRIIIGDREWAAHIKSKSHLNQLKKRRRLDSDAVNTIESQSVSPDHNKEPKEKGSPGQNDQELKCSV
# UniProt Q12931: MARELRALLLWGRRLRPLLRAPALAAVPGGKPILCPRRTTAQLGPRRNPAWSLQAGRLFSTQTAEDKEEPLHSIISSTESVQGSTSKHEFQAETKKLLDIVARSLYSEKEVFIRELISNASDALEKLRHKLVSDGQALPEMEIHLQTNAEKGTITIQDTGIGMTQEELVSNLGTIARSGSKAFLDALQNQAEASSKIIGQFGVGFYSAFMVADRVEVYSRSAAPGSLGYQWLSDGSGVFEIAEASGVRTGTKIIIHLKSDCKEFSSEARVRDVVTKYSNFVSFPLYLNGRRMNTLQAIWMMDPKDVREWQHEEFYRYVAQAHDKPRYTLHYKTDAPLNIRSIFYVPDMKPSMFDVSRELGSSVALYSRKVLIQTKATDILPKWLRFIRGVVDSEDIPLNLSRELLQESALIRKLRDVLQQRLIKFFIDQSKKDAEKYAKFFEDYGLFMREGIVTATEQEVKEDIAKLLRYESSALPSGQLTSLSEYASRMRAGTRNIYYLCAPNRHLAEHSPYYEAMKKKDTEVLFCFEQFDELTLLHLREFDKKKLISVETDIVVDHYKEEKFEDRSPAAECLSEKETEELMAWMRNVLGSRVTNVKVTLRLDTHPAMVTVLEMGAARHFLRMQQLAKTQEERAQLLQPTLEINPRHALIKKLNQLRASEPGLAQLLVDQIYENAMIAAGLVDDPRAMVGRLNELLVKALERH
# UniProt Q8IUR0, whole entry, looked up: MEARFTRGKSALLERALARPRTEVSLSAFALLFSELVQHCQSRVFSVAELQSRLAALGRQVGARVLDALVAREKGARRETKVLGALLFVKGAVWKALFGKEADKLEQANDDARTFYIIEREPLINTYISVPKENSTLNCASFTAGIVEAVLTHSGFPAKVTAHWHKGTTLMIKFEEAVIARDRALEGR
# UniProt Q13263: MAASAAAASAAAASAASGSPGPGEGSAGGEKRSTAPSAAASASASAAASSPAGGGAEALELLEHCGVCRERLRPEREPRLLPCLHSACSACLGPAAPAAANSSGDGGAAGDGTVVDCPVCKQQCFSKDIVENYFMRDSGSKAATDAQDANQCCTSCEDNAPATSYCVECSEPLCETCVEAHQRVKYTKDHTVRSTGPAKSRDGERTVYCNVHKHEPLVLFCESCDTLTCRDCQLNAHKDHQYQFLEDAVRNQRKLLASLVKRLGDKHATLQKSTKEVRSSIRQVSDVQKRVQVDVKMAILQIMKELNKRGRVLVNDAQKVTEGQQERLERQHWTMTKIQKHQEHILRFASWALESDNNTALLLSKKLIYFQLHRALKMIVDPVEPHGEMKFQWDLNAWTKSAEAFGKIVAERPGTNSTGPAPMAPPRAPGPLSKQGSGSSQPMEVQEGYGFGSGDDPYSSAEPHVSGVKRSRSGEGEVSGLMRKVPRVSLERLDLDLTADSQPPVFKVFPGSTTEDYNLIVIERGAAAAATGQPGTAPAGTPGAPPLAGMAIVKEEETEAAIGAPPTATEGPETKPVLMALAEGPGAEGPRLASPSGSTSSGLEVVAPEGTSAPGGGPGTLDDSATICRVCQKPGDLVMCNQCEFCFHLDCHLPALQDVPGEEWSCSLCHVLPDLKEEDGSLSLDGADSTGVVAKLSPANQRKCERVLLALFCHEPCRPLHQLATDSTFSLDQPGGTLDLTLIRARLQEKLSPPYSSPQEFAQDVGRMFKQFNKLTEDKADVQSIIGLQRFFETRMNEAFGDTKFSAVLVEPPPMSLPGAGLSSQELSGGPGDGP
# UniProt Q53H54: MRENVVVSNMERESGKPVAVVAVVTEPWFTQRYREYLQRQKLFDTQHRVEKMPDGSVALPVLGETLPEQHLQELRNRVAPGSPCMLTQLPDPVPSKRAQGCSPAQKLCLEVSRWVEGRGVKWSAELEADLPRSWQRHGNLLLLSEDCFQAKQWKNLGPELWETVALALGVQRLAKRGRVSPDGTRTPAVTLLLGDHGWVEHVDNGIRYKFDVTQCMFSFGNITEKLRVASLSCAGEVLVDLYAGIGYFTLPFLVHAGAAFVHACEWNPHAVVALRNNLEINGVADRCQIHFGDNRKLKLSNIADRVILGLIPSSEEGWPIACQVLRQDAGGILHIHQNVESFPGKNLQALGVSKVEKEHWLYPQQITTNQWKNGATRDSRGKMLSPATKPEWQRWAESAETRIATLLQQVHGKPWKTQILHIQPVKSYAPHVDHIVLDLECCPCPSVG
# UniProt Q9NUP7: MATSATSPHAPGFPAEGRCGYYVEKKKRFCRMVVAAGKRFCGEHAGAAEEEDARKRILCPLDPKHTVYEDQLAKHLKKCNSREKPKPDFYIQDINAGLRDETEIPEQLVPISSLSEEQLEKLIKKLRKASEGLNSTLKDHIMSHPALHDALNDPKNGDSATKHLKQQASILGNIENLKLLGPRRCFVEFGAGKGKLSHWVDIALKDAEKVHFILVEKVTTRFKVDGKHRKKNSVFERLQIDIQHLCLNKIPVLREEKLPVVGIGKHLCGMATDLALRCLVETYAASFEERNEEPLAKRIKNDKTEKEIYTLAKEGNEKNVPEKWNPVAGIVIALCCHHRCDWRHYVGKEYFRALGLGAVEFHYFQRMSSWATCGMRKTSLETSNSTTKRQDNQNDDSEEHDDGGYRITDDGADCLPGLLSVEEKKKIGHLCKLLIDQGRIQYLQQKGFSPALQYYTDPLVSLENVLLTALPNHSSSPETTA
# UniProt Q9C037: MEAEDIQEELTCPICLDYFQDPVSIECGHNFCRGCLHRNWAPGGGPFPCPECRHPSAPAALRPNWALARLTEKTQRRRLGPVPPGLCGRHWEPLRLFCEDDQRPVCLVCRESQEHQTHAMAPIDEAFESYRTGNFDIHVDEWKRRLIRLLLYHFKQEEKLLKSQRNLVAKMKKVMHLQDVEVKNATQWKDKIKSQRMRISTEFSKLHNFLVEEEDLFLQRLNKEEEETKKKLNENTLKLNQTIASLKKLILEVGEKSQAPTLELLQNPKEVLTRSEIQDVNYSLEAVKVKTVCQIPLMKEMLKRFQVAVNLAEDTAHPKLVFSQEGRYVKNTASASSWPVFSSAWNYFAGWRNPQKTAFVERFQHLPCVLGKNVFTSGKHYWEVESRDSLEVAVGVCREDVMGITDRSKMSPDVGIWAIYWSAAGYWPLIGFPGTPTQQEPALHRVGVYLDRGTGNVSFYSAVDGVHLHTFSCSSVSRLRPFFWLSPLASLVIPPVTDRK
# UniProt Q92574: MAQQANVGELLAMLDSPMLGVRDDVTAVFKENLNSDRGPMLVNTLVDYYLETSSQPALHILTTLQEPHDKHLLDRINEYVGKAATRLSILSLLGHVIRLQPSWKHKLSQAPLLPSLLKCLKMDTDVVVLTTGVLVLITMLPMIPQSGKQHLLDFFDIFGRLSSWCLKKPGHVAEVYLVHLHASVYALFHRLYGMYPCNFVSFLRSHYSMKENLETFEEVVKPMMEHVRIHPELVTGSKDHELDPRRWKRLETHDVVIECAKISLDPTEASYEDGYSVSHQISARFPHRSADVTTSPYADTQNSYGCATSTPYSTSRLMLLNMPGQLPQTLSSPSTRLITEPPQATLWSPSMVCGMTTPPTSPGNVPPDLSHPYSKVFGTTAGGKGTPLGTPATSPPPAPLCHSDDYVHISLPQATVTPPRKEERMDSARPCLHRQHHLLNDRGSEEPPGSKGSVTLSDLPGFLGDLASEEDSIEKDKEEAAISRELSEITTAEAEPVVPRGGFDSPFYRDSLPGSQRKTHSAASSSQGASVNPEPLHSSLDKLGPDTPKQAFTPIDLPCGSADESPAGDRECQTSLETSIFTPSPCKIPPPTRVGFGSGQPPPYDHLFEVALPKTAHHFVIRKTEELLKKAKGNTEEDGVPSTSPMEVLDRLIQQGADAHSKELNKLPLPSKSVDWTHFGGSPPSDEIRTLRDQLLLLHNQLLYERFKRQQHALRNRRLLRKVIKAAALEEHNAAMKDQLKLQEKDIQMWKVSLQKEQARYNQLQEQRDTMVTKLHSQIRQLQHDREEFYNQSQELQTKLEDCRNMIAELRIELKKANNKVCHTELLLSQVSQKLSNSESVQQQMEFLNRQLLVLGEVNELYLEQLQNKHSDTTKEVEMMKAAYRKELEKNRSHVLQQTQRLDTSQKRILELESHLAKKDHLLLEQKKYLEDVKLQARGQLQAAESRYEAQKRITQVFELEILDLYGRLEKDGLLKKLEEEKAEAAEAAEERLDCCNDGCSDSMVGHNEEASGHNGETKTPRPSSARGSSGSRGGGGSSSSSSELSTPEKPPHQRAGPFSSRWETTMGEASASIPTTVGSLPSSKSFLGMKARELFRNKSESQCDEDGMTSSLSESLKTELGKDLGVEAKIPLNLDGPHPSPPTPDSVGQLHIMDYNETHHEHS
# UniProt Q8N0Z6: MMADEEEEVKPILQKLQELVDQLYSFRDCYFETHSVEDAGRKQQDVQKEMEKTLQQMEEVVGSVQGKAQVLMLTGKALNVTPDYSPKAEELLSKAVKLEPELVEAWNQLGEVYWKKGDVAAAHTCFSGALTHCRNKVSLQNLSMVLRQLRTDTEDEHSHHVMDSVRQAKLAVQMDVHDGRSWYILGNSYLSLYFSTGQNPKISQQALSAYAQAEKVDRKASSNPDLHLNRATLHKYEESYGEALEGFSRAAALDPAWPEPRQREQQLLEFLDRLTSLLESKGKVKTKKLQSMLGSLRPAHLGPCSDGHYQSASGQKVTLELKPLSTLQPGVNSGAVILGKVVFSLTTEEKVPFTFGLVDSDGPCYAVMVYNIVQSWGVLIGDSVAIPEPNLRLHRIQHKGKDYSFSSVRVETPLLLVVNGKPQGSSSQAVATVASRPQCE
# UniProt Q9BUZ4: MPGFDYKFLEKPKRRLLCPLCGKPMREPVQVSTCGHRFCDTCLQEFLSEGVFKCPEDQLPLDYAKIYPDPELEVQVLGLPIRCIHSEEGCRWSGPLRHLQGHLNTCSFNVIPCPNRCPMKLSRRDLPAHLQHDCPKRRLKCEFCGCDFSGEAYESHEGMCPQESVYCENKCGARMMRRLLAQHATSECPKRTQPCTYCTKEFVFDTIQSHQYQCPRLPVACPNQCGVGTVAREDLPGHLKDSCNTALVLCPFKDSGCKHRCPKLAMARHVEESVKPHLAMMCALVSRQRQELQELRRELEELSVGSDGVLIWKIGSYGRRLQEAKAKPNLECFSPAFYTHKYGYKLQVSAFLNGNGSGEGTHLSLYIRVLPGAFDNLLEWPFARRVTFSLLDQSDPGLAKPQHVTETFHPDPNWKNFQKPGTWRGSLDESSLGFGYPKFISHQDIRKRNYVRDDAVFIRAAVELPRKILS
# UniProt O95801: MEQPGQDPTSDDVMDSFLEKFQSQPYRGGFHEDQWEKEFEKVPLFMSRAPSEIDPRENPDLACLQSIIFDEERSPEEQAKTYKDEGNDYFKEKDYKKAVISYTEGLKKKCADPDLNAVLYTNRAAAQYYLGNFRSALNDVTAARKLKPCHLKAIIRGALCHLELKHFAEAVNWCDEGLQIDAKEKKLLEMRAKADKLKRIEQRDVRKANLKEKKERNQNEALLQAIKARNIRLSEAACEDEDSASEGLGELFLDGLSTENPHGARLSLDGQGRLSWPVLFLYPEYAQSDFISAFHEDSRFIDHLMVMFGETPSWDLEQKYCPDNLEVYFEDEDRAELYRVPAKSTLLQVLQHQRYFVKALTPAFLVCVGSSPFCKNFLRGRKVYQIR
# Legend:
# Test in all cases: log2 fold change, soluble protein after heating vs DMSO (PISA); higher = thermal stabilisation; K562 lysate, 10 uM; active = over 0.2 and 3.5 SD of the protein, either way, in both replicates (recomputed)
# vemurafenib = compound: CCCS(=O)(=O)Nc1ccc(F)c(C(=O)c2c[nH]c3ncc(-c4ccc(Cl)cc4)cc23)c1F [vemurafenib]
# Summary of the method: (§1)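 Log-two fold change in thermal stability relative to solvent controls is reported from duplicates. For each sample, crude K562 extract from dounce-homogenised pellets in PBS pH 7.4 with 1 mM MgCl2, at 1 mg/mL protein, was treated with 10 μM compound for 30 min. Aliquots heated for 3 min across 48°C-58°C were pooled, brought to 0.5% NP-40 at 4°C and cleared at 21,000xg for 90 min. The supernatant was quantified by TMTpro 16plex LC-MS/MS with channel sums equalised.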
# [1] = compound: CCCS(=O)(=O)Nc1ccc(F)c(C(=O)c2c[nH]c3ncc(Cl)cc23)c1F
# Summary of the method: as §1
# barasertib = compound: CCN(CCCOc1ccc2c(Nc3cc(CC(=O)Nc4cccc(F)c4)[nH]n3)ncnc2c1)CCOP(=O)(O)O [barasertib]
# Summary of the method: as §1
# [2] = compound: CC[C@@H]1C(=O)N(C)c2cnc(Nc3ccc(C(=O)NC4CCN(C)CC4)cc3OC)nc2N1C1CCCC1
# Summary of the method: as §1
# volasertib = compound: CC[C@@H]1C(=O)N(C)c2cnc(Nc3ccc(C(=O)N[C@H]4CC[C@H](N5CCN(CC6CC6)CC5)CC4)cc3OC)nc2N1C(C)C [volasertib]
# Summary of the method: as §1
# [3] = compound: CCn1c(C(=O)N(C2CC2)C2CC2)cc2c3c(ncn3C)c(Nc3cc(C)n(C)n3)nc21
# Summary of the method: as §1
# [4] = compound: CCn1cc(-c2ccnc3[nH]c(-c4cccc(CN(C)C)c4)cc23)c(-c2ccc(NC(=O)N(C)C)cc2)n1
# Summary of the method: as §1
# [5] = compound: CN1CCC(CNc2ccc3ncc(-c4cccc(OC(F)(F)F)c4)n3n2)CC1
# Summary of the method: as §1
# saracatinib = compound: CN1CCN(CCOc2cc(OC3CCOCC3)c3c(Nc4c(Cl)ccc5c4OCO5)ncnc3c2)CC1 [saracatinib]
# Summary of the method: as §1
# sotrastaurin = compound: CN1CCN(c2nc(C3=C(c4c[nH]c5ccccc45)C(=O)NC3=O)c3ccccc3n2)CC1 [sotrastaurin]
# Summary of the method: as §1
Target,log2 fold change (vemurafenib),log2 fold change [1],log2 fold change (barasertib),log2 fold change [2],log2 fold change (volasertib),log2 fold change [3],log2 fold change [4],log2 fold change [5],log2 fold change (saracatinib),log2 fold change (sotrastaurin)
TRIP6 (UniProt Q15654),inactive: -0.009,inactive: 0.021,inactive: -0.05,inactive: 0.027,inactive: -0.034,inactive: -0.021,inactive: -0.027,inactive: 0.021,inactive: 0.019,inactive: -0.034
TRAPPC8 (UniProt Q9Y2L5),inactive: 0.003,inactive: 0.011,inactive: 0.018,inactive: -0.049,inactive: -0.063,inactive: 0.032,inactive: -0.003,inactive: -0.01,inactive: -0.021,inactive: 0.012
TSEN15 (UniProt Q8WW01),inactive: 0.021,inactive: 0.008,inactive: 0.059,inactive: -0.033,inactive: -0.006,inactive: -0.062,inactive: -0.109,inactive: 0.02,inactive: 0,inactive: 0.012
TTMP isoform 3 (UniProt Q5BVD1),inactive: 0.227,inactive: 0.029,inactive: -0.025,inactive: 0.122,inactive: 0.031,inactive: -0.182,active: -0.88,inactive: 0.316,inactive: 0.012,inactive: -0.029
TRIM25 (UniProt Q14258),inactive: 0.017,inactive: 0.012,inactive: 0.001,inactive: -0.024,inactive: -0.006,inactive: -0.007,inactive: 0.029,inactive: -0.035,inactive: -0.002,inactive: -0.05
TRIT1 (UniProt Q9H3H1),inactive: 0.067,inactive: 0.008,inactive: -0.015,inactive: -0.002,inactive: -0.061,inactive: 0.028,inactive: -0.029,inactive: -0.041,inactive: 0.04,inactive: 0.025
TRAP1 (UniProt Q12931),inactive: -0.031,inactive: -0.018,inactive: 0.005,inactive: -0.092,inactive: -0.005,inactive: 0.019,inactive: 0,inactive: -0.013,inactive: 0,inactive: -0.007
TRAPPC9 isoform 2 (UniProt Q96Q05),inactive: 0.053,inactive: 0.001,inactive: 0.007,inactive: -0.004,inactive: -0.059,inactive: 0.021,inactive: 0.011,inactive: 0.019,inactive: 0.005,inactive: -0.035
TRIP10 isoform 2 (UniProt Q15642),inactive: 0.137,inactive: -0.167,inactive: -0.045,inactive: -0.083,inactive: -0.045,inactive: -0.002,inactive: -0.067,inactive: 0.072,inactive: -0.059,inactive: 0
TSR1 (UniProt Q2NL82),inactive: 0.032,inactive: 0.022,inactive: 0.023,inactive: -0.033,inactive: -0.039,inactive: -0.003,inactive: 0.048,inactive: -0.051,inactive: 0.012,inactive: 0.025
TSSC4 (UniProt Q9Y5U2),inactive: 0.008,inactive: -0.013,inactive: -0.016,inactive: 0.071,inactive: -0.005,inactive: 0.014,inactive: -0.096,inactive: 0.022,inactive: -0.086,inactive: -0.004
TRIM38 (UniProt O00635),inactive: 0.04,inactive: 0.05,inactive: 0.045,inactive: -0.087,inactive: -0.025,inactive: 0.021,inactive: 0.118,inactive: -0.038,inactive: 0.093,inactive: 0.05
TRAPPC5 (UniProt Q8IUR0),inactive: -0.032,inactive: -0.011,inactive: 0.004,inactive: -0.103,inactive: -0.006,inactive: 0.063,inactive: -0.006,inactive: -0.003,inactive: 0.003,inactive: 0.05
TSR3 (UniProt Q9UJK0),inactive: -0.004,inactive: 0.031,inactive: 0.01,inactive: 0.074,inactive: -0.015,inactive: -0.021,inactive: -0.012,inactive: 0.011,inactive: 0.086,inactive: -0.044
TRIM28 (UniProt Q13263),inactive: -0.01,inactive: 0.002,inactive: -0.009,inactive: -0.001,inactive: 0.007,inactive: -0.006,inactive: -0.008,inactive: 0.013,inactive: 0,inactive: -0.033
TRMT12 (UniProt Q53H54),inactive: 0.059,inactive: -0.009,inactive: 0.068,inactive: -0.17,inactive: -0.052,inactive: 0.047,inactive: -0.303,inactive: 0.281,inactive: -0.021,inactive: -0.047
TSEN2 (UniProt Q8NCE0),inactive: -0.033,inactive: 0.034,inactive: 0.022,inactive: -0.066,inactive: -0.064,inactive: -0.017,inactive: -0.025,inactive: 0.024,inactive: 0.023,inactive: 0.016
TRAFD1 (UniProt O14545),inactive: -0.015,inactive: 0.078,inactive: -0.02,inactive: 0.036,inactive: 0.023,inactive: 0.006,inactive: -0.008,inactive: -0.109,inactive: 0.047,inactive: -0.101
TRIP11 (UniProt Q15643),inactive: 0.042,inactive: 0.028,inactive: 0.083,inactive: 0.045,inactive: -0.001,inactive: 0.037,inactive: -0.131,inactive: -0.126,inactive: 0,inactive: 0.027
TRMT13 (UniProt Q9NUP7),inactive: 0.03,inactive: 0.031,inactive: -0.059,inactive: 0.071,inactive: -0.055,inactive: -0.102,inactive: 0.028,inactive: 0.015,inactive: 0.033,inactive: -0.054
TRIM4 (UniProt Q9C037),inactive: -0.018,inactive: 0.052,inactive: -0.045,inactive: -0.103,inactive: -0.027,inactive: 0.014,inactive: 0.032,inactive: -0.205,inactive: 0.042,inactive: 0.018
TRNT1 (UniProt Q96Q11),inactive: -0.017,inactive: -0.006,inactive: -0.071,inactive: -0.015,inactive: -0.033,inactive: 0.01,inactive: -0.037,inactive: -0.053,inactive: -0.004,inactive: 0.018
TSC1 (UniProt Q92574),inactive: -0.118,inactive: 0.111,inactive: 0.095,inactive: -0.008,inactive: -0.08,inactive: -0.031,inactive: 0.112,inactive: 0.087,inactive: -0.046,inactive: -0.011
TSFM (UniProt P43897),inactive: -0.007,inactive: 0.005,inactive: 0.031,inactive: -0.041,inactive: -0.089,inactive: 0.006,inactive: 0.081,inactive: -0.05,inactive: -0.014,inactive: -0.012
TRAPPC13 isoform 4 (UniProt A5PLN9),inactive: 0.005,inactive: 0.032,inactive: 0.032,inactive: -0.027,inactive: -0.047,inactive: -0.001,inactive: -0.056,inactive: 0.04,inactive: 0.01,inactive: -0.067
TTC5 (UniProt Q8N0Z6),inactive: 0.016,inactive: 0.017,inactive: -0.014,inactive: -0.03,inactive: -0.014,inactive: 0.018,inactive: -0.111,inactive: 0.054,inactive: 0.005,inactive: 0.007
TRAF4 (UniProt Q9BUZ4),inactive: -0.174,inactive: 0.18,inactive: 0.023,inactive: 0.068,inactive: 0.061,inactive: 0.009,inactive: 0.155,inactive: -0.035,inactive: -0.079,inactive: -0.068
TTC4 (UniProt O95801),inactive: 0.004,inactive: 0.05,inactive: -0.004,inactive: 0.008,inactive: -0.024,inactive: 0.007,inactive: -0.089,inactive: -0.027,inactive: 0.033,inactive: 0.005
TRIM11 (UniProt Q96F44),inactive: -0.049,inactive: -0.018,inactive: -0.034,inactive: -0.001,inactive: -0.043,inactive: 0.022,inactive: 0.024,inactive: 0.009,inactive: 0.024,inactive: -0.009

# Full records from above. Order of values: log2 fold change (vemurafenib) | log2 fold change [1] | log2 fold change (barasertib) | log2 fold change [2] | log2 fold change (volasertib) | log2 fold change [3] | log2 fold change [4] | log2 fold change [5] | log2 fold change (saracatinib) | log2 fold change (sotrastaurin)
# TSR3 (UniProt Q9UJK0) is entered as inactive: -0.004 | inactive: 0.031 | inactive: 0.01 | inactive: 0.074 | inactive: -0.015 | inactive: -0.021 | inactive: -0.012 | inactive: 0.011 | inactive: 0.086 | inactive: -0.044
# TSSC4 (UniProt Q9Y5U2) is entered as inactive: 0.008 | inactive: -0.013 | inactive: -0.016 | inactive: 0.071 | inactive: -0.005 | inactive: 0.014 | inactive: -0.096 | inactive: 0.022 | inactive: -0.086 | inactive: -0.004

# Source: the supplement of paper PMC10849652
